# Reference: patent US7232804B2, “Use of KPV tripeptide for dermatological disorders” (Zengen, Inc., priority 2001, dated 2007)
# At least one peptide structure holds a part that was inferred or is arguable (an end, a ring closure or a residue). Where a SMILES comes first, the peptide text is derived from it.
# Columns and labels:
# Candida Albicans = conditions: cited from earlier work
# contact dermatitis = assay: Treatment of contact dermatitis (leather watchband irritant) in a subject with a KPV preparation; format: in vivo
# psoriatic lesions = assay: Topical treatment of psoriatic lesions in a subject, KPV in mineral oil vs contralateral Hydrocortisone
# Excerpt: In a subject with a diagnosed and confirmed greater than ten year history of dermatologically symptomatic psoriasis, KPV was used to treat inflammation, scaling, dryness, pain, erythema, and pruritis. The subject had psoriatic lesions located bilaterally on the volar (palm side) surface of the forearms. The lesions varied in time of existence for greater than ten years with variagated presentation. The subject presented no opportunistic infection of the integument secondary to the psoriatic lesions.
# KPV in a crystalline form was prepared as disclosed in U.S. Pat. No. 5,028,592. Mineral oil was chosen as a carrier for the KPV preparation. One milligram of KPV was administered topically on the affected areas of the integument at a frequency of twice daily. For comparison purposes, a standard dosage amount of Hydrocortisone was placed on the contralateral area of the body of the subject that also manifested the dermatological sequelae of psoriasis. Topical administration was accomplished with standard cotton tipped applicators.
# This treatment was continued for eleven days.
# Staphylococcus Aureus = conditions: cited from earlier work
compound,measurement,setting,value
"CC(C)[C@H](NC(=O)[C@@H]1CCCN1C(=O)[C@@H](N)CCCCN)C(=O)O [KPV, lysine-proline-valine] (H-Lys-Pro-Val-OH)",Antifungal (fungicidal) properties,Candida Albicans,antifungal
same,Improvement of contact dermatitis,"contact dermatitis; KPV preparation, topical",Marked improvement was noted within minutes
same,Return of symptoms,contact dermatitis; after KPV treatment,symptoms did not return
same,Improvement of symptoms associated with the psoriatic lesions,"psoriatic lesions; KPV one milligram twice daily in mineral oil, Hydrocortisone standard dosage on contralateral side",marked improvement within minutes
same,Period of symptom control / relief from symptoms,psoriatic lesions; psoriatic lesions on forearms,at least eight hours
same,Antibacterial (bactericidal) properties,Staphylococcus Aureus,antibacterial
